Assay results: PubChem BioAssay AID493014 (National Center for Advancing Translational Sciences (NCATS), 2011)
The campaign covered roughly 340,000 compounds. About 170 (0.05%) were called active. The shares of active, inactive and inconclusive entries below differ from those in the screen. The call rests on the fitted dose curve; in most records, active means well fitted inhibition curve with a large enough effect in the signal ratio, with a control signal flat (not every such curve was filed as active); inconclusive means small, poorly fitted or top-dose-only effect, or effect the other way, or a change in a side signal; inactive means flat fitted curve, though single readings scatter; the % refers to the signal ratio. A potency beside an inconclusive call is a rough fit, not a confirmed value.

assay: qHTS Assay to Find Inhibitors of Chronic Active B-Cell Receptor Signaling; conditions: ABC-DLBCL IkBa-CBG/CBR reporter, luminescence ratio (green luciferase fused to IkBa over red control in TMD8 lymphoma cells), 4 h; activity change, negative = inhibition: at 46.1 µM (top of the series);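 on activity change, negative = inhibition: plate controls were basal doxycycline-induced cells for no effect and cells given 10 µM MG132 for full effect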
Method in brief: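 Concentration-response series (up to 46 uM) were applied to TMD8 dual-reporter cells for 4 h at 37C with doxycycline. Green/red ratio, after filter-overlap correction, defined %Activity; red signal alone was normalised to basal cells and zero luminescence.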
Potency means the concentration at half of the fitted maximal effect.

SMILES	activity change, negative = inhibition	Potency
COc1ccc(NC(=O)COC(=O)c2cc(=O)c3ccccc3o2)cc1OC	inconclusive: 2.78%	
COC(=O)c1ccccc1NC(=O)CCS(=O)(=O)c1ccc(Br)s1	inconclusive: -11.9%	
Cc1cccc(N2CCN(C(=O)CCCOc3ccccc3)CC2)c1C	inconclusive: -0.207%	
OC(CNCC(c1ccc(Cl)cc1Cl)c1c[nH]c2ccccc12)c1ccccc1 (configuration not stated)	inconclusive: 6.09%	
CCCCCCOC(=O)Sc1nc2ccccc2o1		inconclusive: 16.4 µM [falling, partial curve]
OCCC1CN(Cc2ccccc2-c2ccco2)CCN1C1CCCC1 (configuration not stated)	inconclusive: -10.5%	
Cc1cccc2nc(-c3cccnc3)c(NCCC(C)C)n12	inactive: 0.991%	
COC1=C/C(=C/c2c(O)c(C#N)c3ccccn23)C=CC1=O		inconclusive: 14.1 µM [rising, partial curve, poor fit]
CCC(C)NCCOCCOc1ccc(Br)cc1 (configuration not stated)	inconclusive: -13.6%	
Cc1nc(NC(=O)c2ccccc2)sc1-c1csc(NCc2ccccc2)n1	inconclusive: 8.59%	
CCc1ccc(S(=O)(=O)Nc2cc3c(cc2N2CCCCC2)n(C)c(=O)c(=O)n3C)cc1	inconclusive: 2.46%	
CC1CCCCN1c1nnc(N)s1 (configuration not stated)	inconclusive: -0.904%	
COc1cccc(/C=N/Nc2nc3ccccc3[nH]2)c1OC		inconclusive: 5.62 µM [rising, single point]
Clc1cccc(CSc2ccc(-c3ccco3)nn2)c1	inconclusive: 20.9%	
COc1cc(/C=N/Nc2ccc(C(F)(F)F)cn2)ccc1O	inactive: -24.6%	
COc1ccc(NC(=O)c2c(NCc3cccc(OC)c3)sc3c2CCCC3)cc1		inconclusive: 22.4 µM [falling, partial curve]
CCOC(=O)c1c(N2C(=O)C3CC(C)=C(C)CC3C2=O)sc(C)c1C (configuration not stated)	inconclusive: -0.503%	
Cc1nc(-n2[nH]c3c(c2=O)CCCC3)[nH]c(=O)c1Cc1ccccc1		inconclusive: 17.8 µM [falling, single point]
O=C(CCC1N=C2c3ccccc3N=C(SCc3ccccc3F)N2C1=O)NCc1ccc(F)cc1 (configuration not stated)	inactive: 9.15%	
CCOC(=O)c1ccc(-n2[nH]c(-c3ccccc3)cc2=O)cc1		inconclusive: 16.4 µM [falling, partial curve, poor fit]
CCOC(=O)C(C)c1c(C(=O)c2ccc(C)nc2)c2ccccc2n1C (configuration not stated)	inconclusive: 0.484%	
O=C(COc1cccnc1[N+](=O)[O-])Nc1ccc2c(c1)OCO2		inconclusive: 35.5 µM [falling, single point]

Two entries drawn at random from those above:
SMILES	activity change, negative = inhibition	Potency
CCOC(=O)C(C)c1c(C(=O)c2ccc(C)nc2)c2ccccc2n1C (configuration not stated)	inconclusive: 0.484%	
COc1ccc(NC(=O)COC(=O)c2cc(=O)c3ccccc3o2)cc1OC	inconclusive: 2.78%	
